Assay [1] addresses T1, CCR1 (1–327 aa) with LgBiT at the C terminal (human) (UniProt P32246).
T1 sequence: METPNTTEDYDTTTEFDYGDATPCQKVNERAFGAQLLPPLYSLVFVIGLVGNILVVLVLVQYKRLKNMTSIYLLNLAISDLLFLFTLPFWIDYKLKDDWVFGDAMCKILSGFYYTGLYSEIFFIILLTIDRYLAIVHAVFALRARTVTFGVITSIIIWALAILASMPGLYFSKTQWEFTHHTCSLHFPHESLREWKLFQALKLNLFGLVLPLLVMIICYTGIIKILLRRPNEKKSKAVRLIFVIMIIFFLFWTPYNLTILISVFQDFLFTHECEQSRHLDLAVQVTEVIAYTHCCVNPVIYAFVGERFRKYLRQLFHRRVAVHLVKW
In words: split reporter; CCR1 (1–327)-LgBiT and SmBiT-β-arrestin2 in HEK293T cells; stimulated with CCL15 truncations, 10^-13 to 10^-6 M; luminescence with coelenterazine h.

Assay [2] addresses T2, CCR1 (1–327 aa) with Rluc8 at the C terminal via a 6*His linker (human) (UniProt P32246).
T2 sequence: T1 sequence
In words: FRET or BRET; BRET; CCR1 (1–327)-Rluc8 and Venus-β-arrestin2 in HEK293T cells; stimulated with CCL15 truncations, 10^-13 to 10^-6 M, 40 min.

Experimental findings from article PMC8885419, “Identification and mechanism of G protein-biased ligands for chemokine receptor CCR1” (Nature Chemical Biology, 2021) are described below.

No constants are given. Whether binding was seen depends on the method and setting. In cells and extracts the contact can be indirect. Some binding calls cover weakened binding; strength is not graded here. For some assays here: Where a sequence is shown, tags or fusion partners need not be part of it.

Consider “β-arrestin2 with SmBiT fused at the N terminus (from UniProt P32121 1-409)”, for which the binding entry in assay [1] is “binds”.

Take “β-arrestin2 with Venus at the N terminal (from UniProt P32121 1-409)”: in assay [2], the binding entry is on record as “binds”.
